From PubChem BioAssay AID485298 (National Center for Advancing Translational Sciences (NCATS), 2010)
Out of some 320,000 compounds screened, about 740 (0.23%) were called active. This list was built around the results that the source calls inconclusive (neither active nor inactive); the mix of calls is not that of the screen. The call rests on the fitted dose curve; in most records, active means well fitted activation curve with a large enough effect; inconclusive means small, poorly fitted or top-dose-only effect; inactive means no such curve, though single readings can be large or run the other way. Potencies beside an inconclusive call are fits to weak or partial responses and may not hold up.

Experiment: qHTS Assay for Small Molecule Inhibitors of Mitochondrial Division or Activators of Mitochondrial Fusion; further: nearly all actives have a fitted effect of over 45% in size;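 on growth rescue (activation): temperature-sensitive fusion mutants such as fzo1-1 at 37 °C on non-fermentable ethanol glycerol medium; % of control where 0% means no effect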
Settings: S. cerevisiae fusion-defective mutant growth rescue, CellTiterGlo 48 h; growth rescue (activation): at 46.1 µM (top of the series) unless noted
Procedure, shortened: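 Yeast fusion mutant, YPEG (non-fermentable carbon), compound, 48 h at 37C non-permissive; CellTiterGlo added, 10 min RT, luminescence read. Rescued growth = division inhibition.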
Potency means the concentration at half of the fitted maximal effect.

| Compound | Potency | growth rescue (activation) |
| --- | --- | --- |
| COc1ccc(Cl)cc1NC(=O)CCN1CCOCC1 | inconclusive: 5.62 µM [activator, single point] | – |
| Oc1ccccc1C1CC(c2cccs2)=NC(c2ccc(Cl)cc2)N1 (stereo not drawn) | inconclusive: 17.8 µM [activator, partial curve] | – |
| Cc1cc(=O)[nH]c(SCc2cccc3ccccc23)n1 | inconclusive: 35.5 µM [activator, partial curve] | – |
| O=C(Nc1ccccc1C(=O)Nc1nnc(C(F)(F)F)s1)c1ccccc1Cl | inconclusive: 12.6 µM [activator, partial curve] | – |
| COc1ccc([C@H]2CC(=O)C=C(c3ccnc4ccc(Cl)cc34)C2)cc1 | inconclusive: 22.4 µM [activator, single point] | – |
| CCCCCCN1C=CC(=C2C(=O)c3ccccc3C2=O)C=C1 | inactive | – |
| COc1ccc(OC)c(CNC(=O)C2CCCN(S(=O)(=O)N3CC(C)CC(C)C3)C2)c1 (stereo not drawn) | inconclusive: 31.6 µM [activator, single point] | – |
| CCC(C(=O)Nc1ccccc1F)n1nc(C)c2c(C)n(-c3ccccc3)nc2c1=O (stereo not drawn) | inconclusive: 31.6 µM [activator, single point] | – |
| Cc1ccc(-n2c(C)nc3oc4ccccc4c(=O)c3c2=O)cc1 | inconclusive: 35.5 µM [activator, single point] | – |
| Cc1sc2ncn(CC(=O)N(CC(=O)NC3CCCC3)Cc3cccs3)c(=O)c2c1C | inconclusive: 7.94 µM [activator, partial curve] | – |
| O=C(NC(=S)NCC1COc2ccccc2O1)c1ccccc1 (stereo not drawn) | inconclusive: 35.5 µM [activator, single point] | – |
| O=C(Nc1ccccc1C(=O)Nc1ccccc1C(=O)O)c1ccccc1 | inactive | – |
| CCO[C@@H]1OC(C(=O)N2CCN(Cc3ccc4c(c3)OCO4)CC2)=C[C@H](C2CCCCC2)[C@H]1CCCO | inactive | – |
| COc1ccc2c(c1OC)C(=O)N(c1cccc(NC(C)=O)c1)C2 | inconclusive: 35.5 µM [activator, single point] | – |
| O=C(Oc1coc(CSc2nnc(NC(=O)C3CC3)s2)cc1=O)c1c(F)cccc1F | inconclusive: 28.2 µM [activator, partial curve] | – |
| COc1ccc(Cl)cc1NC(=O)CN(C)C(=O)c1cc(-c2cccs2)nn1-c1ccccc1 | inconclusive: 11.2 µM [activator, single point] | – |
| COC(=O)[C@]1(Cc2ccccc2)N[C@H](c2ccc(-c3ccc(F)cc3)cc2)[C@@H]2C(=O)N(C)C(=O)[C@@H]21 | inconclusive: 11.2 µM [activator, partial curve] | – |
| CCn1c(C(=O)N2CCCC(C(=O)NCCCc3ccccc3)C2)cc2sccc21 (stereo not drawn) | inconclusive: 35.5 µM [activator, single point] | – |
| O=C1CC(C(=O)Nc2cccc3ccccc23)C2(CCCC2)O1 (stereo not drawn) | inactive | – |
| Cc1cc(OCC(=O)NNC(=O)c2ccncc2)cc(C)c1Cl | inactive | – |
| O=C(CSc1nnc(NC(=O)c2ccccc2F)s1)NCc1ccco1 | inactive | – |
| Clc1ccc(Nc2ncnc3c2cnn3-c2ccccc2)cc1 | inconclusive: 11.2 µM [activator, partial curve] | – |
| CC(=O)c1ccc(NC(=O)C2(c3ccccc3)CC2(Cl)Cl)cc1 (stereo not drawn) | inactive | – |

Grouped by structure: those above with two or more sulfur atoms.

| Compound | Potency | growth rescue (activation) |
| --- | --- | --- |
| Cc1sc2ncn(CC(=O)N(CC(=O)NC3CCCC3)Cc3cccs3)c(=O)c2c1C | inconclusive: 7.94 µM [activator, partial curve] | – |
| O=C(Oc1coc(CSc2nnc(NC(=O)C3CC3)s2)cc1=O)c1c(F)cccc1F | inconclusive: 28.2 µM [activator, partial curve] | – |
| O=C(CSc1nnc(NC(=O)c2ccccc2F)s1)NCc1ccco1 | inactive | – |

Rewritten as comma-separated lines: entries from further up
Compound,Potency,growth rescue (activation)
COC(=O)[C@]1(Cc2ccccc2)N[C@H](c2ccc(-c3ccc(F)cc3)cc2)[C@@H]2C(=O)N(C)C(=O)[C@@H]21,"inconclusive: 11.2 µM [activator, partial curve]",–
CCn1c(C(=O)N2CCCC(C(=O)NCCCc3ccccc3)C2)cc2sccc21 (stereo not drawn),"inconclusive: 35.5 µM [activator, single point]",–

Next part:

| Compound | Potency | growth rescue (activation) |
| --- | --- | --- |
| CC1(C)C(=O)N(CCN2CCC(C(=O)c3ccc(F)cc3)CC2)c2ccccc21 | inconclusive: 20.6 µM [activator, partial curve] | – |
| CN(CC(=O)Nc1ccccc1Cl)C(=O)c1ccc(-c2cccc(C(F)(F)F)c2)o1 | inconclusive: 17.8 µM [activator, single point] | – |
| COc1cc2c(cc1OC)C1O[C@](CCCCN3C(=O)c4ccccc4C3=O)(C2)OC2=C1C(=O)CC(C)(C)C2 | – | inactive: -24.4% [at 9.22 µM] |
| CCN(CC)CC1CCCCN1CC(=O)N1c2ccccc2C(=O)Nc2cccnc21 (stereo not drawn) | inactive | – |
| Cc1ccccc1OC(=O)c1cccc(S(=O)(=O)N2CCN(C)CC2)c1 | inactive | – |
| COc1ccc(-c2cc(C(=O)N(C)CC(=O)Nc3cccc(F)c3)c3ccccc3n2)cc1 | inconclusive: 22.4 µM [activator, single point] | – |
| Cc1cc(C)c2nc(NC(=O)c3cc(C)on3)sc2c1 | inactive | – |
| COc1ccc(NC(=O)Cn2c(-c3ccccc3)cn(-c3ccc(C)cc3)c2=O)cc1 | inactive | – |
| COC(=O)c1c(-c2ccccc2)c(-c2ccccc2)nn(C)c1=O | inactive | – |
| CC1(C)CC(=O)C=C(c2cccc3c2sc2ccccc23)C1 | inconclusive: 20 µM [activator, single point] | – |
| CCOC(=O)c1cc2c(ccn2C)n1Cc1ccc(C#N)cc1 | inconclusive: 20 µM [activator, partial curve] | – |
| O=c1c(-c2ccccc2)c(O)c2cccc3c2n1CCC3 | inconclusive: 22.4 µM [activator, partial curve, poor fit] | – |
| CCOC(=O)C1=C(N)N(c2ccc(C)cc2)C2=C(C(=O)CCC2)C1c1cccs1 (stereo not drawn) | active: 20 µM | – |
| O=[N+]([O-])c1ccc(/C=N/n2cnc3ccccc32)s1 | inconclusive: 11.2 µM [activator, partial curve] | – |
| O=C(Oc1ccc(Oc2ccccc2)cc1)N1CCC(O)CC1 | inconclusive: 10 µM [activator, partial curve] | – |
| COc1cn(-c2ccccc2)nc1C(=O)Nc1ccccc1 | inconclusive: 12.6 µM [activator, partial curve] | – |
| CCOc1ccc(-c2nc(N)ncc2Oc2ccc(OC)cc2)c(O)c1 | inconclusive: 7.94 µM [activator, partial curve] | – |
| Fc1ccc2[nH]c3c(N4CCN(c5ccccc5)CC4)ncnc3c2c1 | inconclusive: 15.8 µM [activator, single point] | – |
| Cc1cccc(OCC(=O)N2CCN(c3nnc(-c4ccccc4)c4ccccc34)CC2)c1 | inconclusive: 17.8 µM [activator, partial curve] | – |
| CCCCc1nn(-c2cc(Cl)ccc2OC)c2c1C(=O)CCC2 | inconclusive: 17.8 µM [activator, partial curve] | – |
| Fc1ccc(-c2nc3ccccn3c2NCc2ccc3c(c2)OCO3)cc1 | inconclusive: 22.4 µM [activator, single point] | – |
| O=C(c1ccc(Cl)cc1)C1CCN(C(=O)NC2CCCCC2)CC1 | inactive | – |
| CCOc1ccc(CCNC(=O)COC(=O)COc2cc(C)cc(C)c2)cc1OCC | inactive | – |

| Compound | Potency | growth rescue (activation) |
| --- | --- | --- |
| Cc1cc(C)cc(NC(=O)N2CCC(C(=O)c3ccc(F)cc3)CC2)c1 | inactive | – |
| COc1cccc([C@@H]2Oc3ccc(Br)cc3C(=O)[C@H]2OC(=O)NC2CCCC2)c1 | inconclusive: 35.5 µM [activator, single point] | – |
| O=C(Nc1nc(-c2ccco2)c(-c2ccco2)s1)C1CCC1 | inconclusive: 35.5 µM [activator, single point] | – |
| COc1cc2c(-c3ccc4cc[nH]c4c3)c(-c3ccc(C#N)cc3)oc(=O)c2cc1OC | inconclusive: 3.55 µM [activator, single point] | – |
| CCCc1ccc(NC(=O)C2CCCN(c3cnccn3)C2)cc1 (stereo not drawn) | inconclusive: 35.5 µM [activator, single point] | – |
| CC(C)(C)c1ccc(CSc2nc(N)cc(=O)[nH]2)cc1 | inconclusive: 11.2 µM [activator, partial curve] | – |
| Cc1ccc(C(C(=O)NC2CCCC2)N(C(=O)Cc2cccs2)c2ccc(C)c(C)c2)o1 (stereo not drawn) | inactive | – |
| Cc1c(C(=O)Nc2nc3ccccc3[nH]2)oc2ccccc12 | inconclusive: 28.2 µM [activator, single point] | – |
| CCN(C(=S)Nc1cc(S(=O)(=O)N2CCOCC2)ccc1Cl)c1cccc2ccccc12 | inconclusive: 22.4 µM [activator, single point] | – |
| CCOC(=O)c1c(C)oc2c1cc(O)c1ccccc12 | inactive | – |
| COc1cc(/C=N/NC(=O)c2[nH]nc3c2CCc2ccccc2-3)ccc1O | inactive | – |
| Cc1ccc(-c2cc(C(=O)NCCCN3CCOCC3)c3ccccc3n2)cc1C | active: 6.31 µM | – |
| CC(C)C(C)(C#N)NC(=O)CSc1ncnc2sc(-c3ccccc3)cc12 (stereo not drawn) | inconclusive: 17.8 µM [activator, single point] | – |
| COc1ccc(-c2sc3cc(OC)c(OC)cc3c2C#CC2(O)CCCCC2)cc1 | inconclusive: 22.4 µM [activator, single point] | – |
| COCCOC(=O)c1c(C)oc2ccc(OC(=O)c3ccc4c(c3)OCO4)cc12 | inconclusive: 35.5 µM [activator, single point] | – |
| COCCN=c1scc(-c2cc(OC)c(OC)c(OC)c2)n1/N=C/c1c(C)[nH]c2ccccc12 | inconclusive: 22.4 µM [activator, single point] | – |
| CC(=O)c1c(C)[nH]c(C(=O)Nc2ccccc2Cl)c1C | inconclusive: 25.1 µM [activator, partial curve] | – |
| Cc1ccc(CNC(=O)CSc2nnc3c(n2)[nH]c2ccc(F)cc23)cc1 | inconclusive: 20 µM [activator, single point] | – |
| CCc1ccc(Nc2cnn(-c3nc4ccccc4s3)c(=O)c2Cl)cc1 | active: 11.2 µM | – |
| Cc1cc(C)c(S(=O)(=O)NCCc2ccncc2)c(C)c1 | inactive | – |
| Cc1cccc(NC(=O)c2nc[nH]c2C(=O)N[C@@H](Cc2ccccc2)C(=O)OC(C)(C)C)c1 | inconclusive: 12.6 µM [activator, partial curve] | – |
| Nc1nc(SCc2ccc(Cl)cc2Cl)ns1 | inconclusive: 12.6 µM [activator, partial curve] | – |
